Source: PubChem BioAssay AID2685 (National Center for Advancing Translational Sciences (NCATS), 2010)
The list shows a part of the results. These are further read-outs of the screen, such as a control signal, another cell line or another target. No call is given for them. Most of these compounds were active or inconclusive in the main read-out, so they are no random draw. Potencies come from curve fits of mixed quality, noted in brackets.

Assay: qHTS Assay for Lipid Storage Modulators in Drosophila S3 Cells;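 on cell number change: cells counted by Cell Tracker Red CMTPX staining in the red channel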
Conditions: BODIPY lipid droplet fluorescence, 18-24 h; for cell number change: measured here: cell count max response, cells fed with added oleic acid
In short: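 Drosophila S3 cells loaded with oleic acid (400 uM, as added) and compounds at several concentrations; lipid droplets imaged by 488-nm laser-scanning cytometry, 500–530 nm intensity and object ratio to cell channel. Percent activity normalized to 20 uM Triacsin C.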

[1] = measured here: cell number channel AC50, cells fed with added oleic acid
[2] = measured here: lipid fluorescence (Fed channel) AC50, cells fed with added oleic acid

Q: For `c1coc(-c2ccnc3nc(-n4cccc4)nn23)c1`, which AC50 [1] is on record?
A: 6.51 µM [rising, partial curve, poor fit]

Q: Which cell number change does the source give for `O=C1NC(c2cccc(Cl)c2)Oc2ccccc21` (configuration not stated) here?
A: 10.6%

Q: And the AC50 [2]?
A: 0.58 µM [rising, single point]

Q: Which results are given for `Cc1ccnc(NC(=O)CNC(=O)c2ccc(C)s2)c1`?
A: cell number change: 60.9%; AC50 [1]: 20.6 µM [rising, partial curve]

Q: Which cell number change does the source give for `CCCS(=O)(=O)c1ncc(Cl)c(C(=O)Nc2ccc(S(=O)(=O)Nc3ncccn3)cc2)n1` here?
A: -18.3%

Q: And the AC50 [2]?
A: 29.1 µM [falling, single point]

Q: Which cell number change does the source give for `COc1ccc(C2Nc3ccccc3C(=O)N2c2ccccc2)cc1Cn1cc([N+](=O)[O-])cn1` (configuration not stated) here?
A: 7.03%

Q: And the AC50 [2]?
A: 7.31 µM [rising, partial curve, poor fit]

Q: Which cell number change does the source give for `COc1cc(C2NC(=S)NC(c3ccccc3)=C2C(C)=O)cc(Br)c1OCC(N)=O` (configuration not stated) here?
A: 27.4%

Q: What about the AC50 [2] of the same compound?
A: 1.46 µM [rising, partial curve]

Q: With `COc1cc(OC)cc(C(=O)NC(=S)Nc2ccc(N3CCCC3)cc2)c1` as the compound, how does the cell number change read?
A: -22.9%

Q: For `O=C1Nc2ccccc2C1=Nc1ccc(-c2nnc3n2CCCCC3)cc1`, which cell number change is on record?
A: 9.39%

Q: What about the AC50 [2] of the same compound?
A: 9.2 µM [rising, partial curve]

Q: For `O=c1c(Cc2c(F)cccc2Cl)c(O)ccn1C1CCCCCC1`, which cell number change is on record?
A: 9.58%

Q: What about the AC50 [2] of the same compound?
A: 0.1 µM [falling, full curve, poor fit]

Q: With `CSCCNC(=O)c1cccc(Cl)c1` as the compound, how does the cell number change read?
A: 38.6%

Q: Which cell number change does the source give for `O=C(c1ccccc1)N1CCN(c2ccc([N+](=O)[O-])c(NCC3CCCO3)c2)CC1` (configuration not stated) here?
A: -41.9%

Q: What about the AC50 [1] of the same compound?
A: 29.1 µM [falling, single point]

Q: What does the source list for `CCNC(=S)N1CCNC(=O)C1CC(=O)OC` (configuration not stated)?
A: cell number change: 165%; AC50 [1]: 29.1 µM [rising, single point]

Q: For `CCOCCCNC(=O)C1CCN(S(=O)(=O)N2CCCCC2)CC1`, which cell number change is on record?
A: -17.3%

Q: And the AC50 [2]?
A: 0.259 µM [falling, full curve, poor fit]

Q: Which cell number change does the source give for `CCOc1ccc(/C=N/NC(=O)c2ccc(CSc3nc4ccccc4[nH]3)cc2)cc1` here?
A: -1.63%

Q: What about the AC50 [2] of the same compound?
A: 6.51 µM [rising, single point]

Q: With `Cc1cc(C)c(NC(=O)CNC(=O)c2ccccc2SCC(=O)N2CCCC2)c(C)c1` as the compound, how does the cell number change read?
A: 2.13%

Q: What about the AC50 [2] of the same compound?
A: 2.91 µM [rising, single point]

Q: Which results are given for `O=C(Nc1ccccc1C(F)(F)F)c1cc2ccccc2o1`?
A: cell number change: 13.8%; AC50 [2]: 29.1 µM [rising, single point]

Q: Which cell number change does the source give for `COc1ccc(CCNC(=O)COC(=O)COc2ccc(C#N)cc2)cc1` here?
A: -6.69%

Q: What about the AC50 [2] of the same compound?
A: 5.17 µM [falling, single point]

Q: For `C=CCN1C(=O)/C(=C\c2ccc(Cl)cc2)N=C1SCC(=O)NCCC`, which cell number change is on record?
A: 21%

Q: What about the AC50 [2] of the same compound?
A: 2.91 µM [rising, partial curve]

Q: What does the source list for `O=[N+]([O-])c1ccccc1S(=O)(=O)N1CCN(CC2CC3C=CC2C3)CC1` (configuration not stated)?
A: cell number change: -9.55%; AC50 [2]: 20.6 µM [falling, partial curve]

Q: With `Cc1cc(N2CCN(C(c3ccccc3)c3ccccc3)CC2)n2ncnc2n1` as the compound, how does the cell number change read?
A: -1.15%

Q: And the AC50 [2]?
A: 29.1 µM [rising, single point]

Q: For `Cc1ccc(OS(=O)Nc2cccc3nccnc23)cc1` (configuration not stated), which cell number change is on record?
A: 2.07%

Q: And the AC50 [2]?
A: 18.4 µM [rising, single point]

Q: With `O=C(NC(=S)NC1CCCCC1)c1ccc(Cl)cc1` as the compound, how does the cell number change read?
A: 11.4%

Q: And the AC50 [2]?
A: 29.1 µM [falling, single point]

Q: With `N#C/C(C(=O)N1CCOCC1)=C1/SC(Cc2ccccc2)C(=O)N1c1ccccc1` (configuration not stated) as the compound, how does the AC50 [1] read?
A: 0.082 µM [falling, full curve, poor fit]

Q: With `CC(=O)c1c(C)[nH]c(C(=O)CN2CCN(S(=O)(=O)c3ccccc3)CC2)c1C` as the compound, how does the cell number change read?
A: -9.21%

Q: What about the AC50 [2] of the same compound?
A: 4.11 µM [rising, full curve, poor fit]

Q: For `CC(C)N(Cc1ccccc1)C(=S)Nc1ccc(OC(F)F)cc1`, which cell number change is on record?
A: -0.949%

Q: And the AC50 [2]?
A: 16.4 µM [rising, single point]

Q: Which cell number change does the source give for `COc1ccccc1NC(=O)c1ccc(SCC(=O)NCc2ccccc2Cl)c([N+](=O)[O-])c1` here?
A: 15%

Q: What about the AC50 [2] of the same compound?
A: 0.92 µM [rising, full curve, poor fit]

Q: Which cell number change does the source give for `NS(=O)(=O)c1ccc(CNC(=O)c2cccnc2Cl)cc1` here?
A: -10.3%

Q: And the AC50 [2]?
A: 0.116 µM [falling, single point]

Q: For `CC(=O)Nc1sc(C)c(C)c1C(=O)OC(C)C`, which cell number change is on record?
A: 22.4%

Q: What about the AC50 [2] of the same compound?
A: 6.51 µM [rising, single point]

Q: For `COc1ccc(C2=NO[C@@H]3C(=O)N(c4c(C)cccc4C)C(=O)[C@H]23)cc1OC`, which cell number change is on record?
A: -8.84%

Q: What about the AC50 [2] of the same compound?
A: 0.013 µM [falling, full curve]

Q: For `FC(F)Oc1ccc(NC(=S)Nn2cnnc2)cc1`, which cell number change is on record?
A: -48.3%

Q: And the AC50 [1]?
A: 18.4 µM [falling, partial curve, poor fit]

Q: And the AC50 [2]?
A: 29.1 µM [falling, single point]
